The campaign covered roughly 320,000 compounds. About 480 (0.15%) were called active. The shares of active, inactive and inconclusive entries below differ from those in the screen. No stated cut-off is given here; in the data, active means inhibition above about 26% (passing the limit was not always enough); inconclusive means no clear call, values can overlap the other calls.
molecular target: Histone deacetylase 3 (Homo sapiens) (UniProt O15379); test: HDAC3 deacetylase inhibitors, primary screen, biochemical, fluorescence, cell-free homogeneous (AID 2718); conditions: recombinant HDAC3, fluorogenic peptide/trypsin coupled, at 8.3 µM, stronger effect = higher value

By UniProt entry, the sequences of proteins in these tests, tags left out.
UniProt O15379, whole entry, looked up: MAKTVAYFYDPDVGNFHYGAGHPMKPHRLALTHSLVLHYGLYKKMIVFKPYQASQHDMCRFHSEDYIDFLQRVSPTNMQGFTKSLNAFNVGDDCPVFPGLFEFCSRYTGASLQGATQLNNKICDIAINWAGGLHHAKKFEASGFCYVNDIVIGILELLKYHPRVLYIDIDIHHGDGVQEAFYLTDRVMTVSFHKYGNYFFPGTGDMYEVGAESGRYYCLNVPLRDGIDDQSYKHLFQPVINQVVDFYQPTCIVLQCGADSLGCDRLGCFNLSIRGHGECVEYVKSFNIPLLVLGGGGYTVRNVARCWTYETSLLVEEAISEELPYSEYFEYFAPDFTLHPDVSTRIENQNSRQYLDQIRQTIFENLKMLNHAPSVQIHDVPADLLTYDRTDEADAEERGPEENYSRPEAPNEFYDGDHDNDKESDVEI

Structure (SMILES)	inhibition
COc1ccc(Nc2nc(NCc3ccco3)nc(N/N=C/c3ccc(O)cc3)n2)cc1	inconclusive: 15.3%
Cc1ccc(S(=O)(=O)N2[C@@H](c3ccc(Cl)cc3)C(C(=O)O)=CC[C@H]2c2cccc(Cl)c2)cc1	inactive: -1.98%
Cc1ccc(C2(C)NC(=O)N(CC(=O)NC(=O)NCCC(C)C)C2=O)cc1 (configuration not stated)	inconclusive: 18.9%
CCC1=NNc2cccc3c(OC)ccc1c23	active: 31%
COc1ccc(C(C)(C)C)cc1NC(=O)c1ccc2c(c1)SC1=NS(=O)(=O)CCN12	inconclusive: 13.4%
COc1ccc(-c2nc(CNS(=O)(=O)c3ccc(OC)c(OC)c3)cs2)cc1	inactive: 3.07%
COc1ccc(CCNC(=O)CSC(=O)c2ccccc2)cc1OC	inactive: -0.0578%
N#Cc1ccccc1NC(=O)COC(=O)c1ccc(F)cc1F	inactive: -2.64%
O=C(NC(=S)Nc1cccc(C(F)(F)F)c1)c1ccc2nonc2c1	inconclusive: 20.6%
CCc1cc(C(=O)COc2ccc(F)cc2)c(O)cc1O	inactive: 4.91%
O=C(O)c1ccccc1-c1ncc(-c2ccccc2)o1	inactive: -18.3%
COc1ccccc1NC(=O)CSc1nnnn1-c1ccc2c(c1)OCO2	inconclusive: 12.7%
COc1cc(C(=O)NCC(c2cccnc2)N2CCN(c3ccc(F)cc3)CC2)cc(OC)c1OC (configuration not stated)	inconclusive: 11.2%
Cc1ccc(C2(C)NC(=O)N(CC(=O)Nc3ccc(Cl)c(S(=O)(=O)N4CCCCC4)c3)C2=O)cc1 (configuration not stated)	inconclusive: 30.5%
C=CCC[C@@H](Cc1ccc(F)cc1)C(=O)OC[C@H](C)NC(=O)[C@H](CC=C)CC(=O)N(CCO)Cc1ccccc1	inconclusive: 23.5%
CCN1CCN(C(c2cc3cccc(C)c3[nH]c2=O)c2nnnn2Cc2ccccc2)CC1 (configuration not stated)	inactive: -7.21%
Cc1ccc(C)c(NC(=O)c2cc([N+](=O)[O-])cc([N+](=O)[O-])c2)c1	inactive: 0.058%
Clc1ccccc1Cn1nnc(-c2cccs2)n1	inconclusive: 13.1%
C[N+]1(CN2C(=O)C3C4C=CC(C4)C3C2=O)CCCCC1 (configuration not stated)	inactive: 1.18%
COC(=O)c1ccc(OC(=O)c2ccccn2)cc1	active: 46.1%
COc1ccc2cc3cc(C(=O)N4CCCCC4C)oc3nc2c1 (configuration not stated)	inactive: -8.96%
CCC(=O)N1CCN=C1SCc1ccccc1	inactive: 1.94%

Structure (SMILES)	inhibition
CC1N(C)c2cc(NC(=O)c3cccs3)c(P(=O)(Nc3ccc([N+](=O)[O-])cc3)N3CCOCC3)cc2C1(C)C (configuration not stated)	inconclusive: 22.7%
O=C(NC12CC3CC(CC(C3)C1)C2)c1cccc([N+](=O)[O-])c1	inactive: -4.41%
Cc1c(CCC(=O)O)c(=O)oc2cc3occ(-c4ccc(Cl)cc4)c3cc12	inactive: -1.36%
COc1cccc(-n2cc(CNC(=O)C3CCC(=O)N(C4CC4)C3)cn2)c1 (configuration not stated)	inactive: -3.93%
CCCCCCCCCCCCCCCC[n+]1cccc2ccccc21	inconclusive: 23.6%
COc1ccc(-c2oc3ccc(-c4cc(OC)c(OC)c(OC)c4)cc3c2-c2ccc(OC)nc2)cc1	inconclusive: 11.4%
CN(C(=O)CCCN1C(=O)c2ccccc2C1=O)C1CCCCC1	inconclusive: 28.9%
Cc1cc2ncc(-c3ccc(Cl)cc3)c(N)n2n1	inactive: -4.73%
COc1ccc(C)cc1NC(=O)CCNS(=O)(=O)c1ccc2c(c1)CCC(=O)N2	inconclusive: 11.1%
O=c1[nH]oc2cc(Cl)ccc12	inactive: 1.82%
CCN(CC)S(=O)(=O)c1ccc2c3c(cccc13)C(=O)N2	inactive: -6.2%
Cc1cc(C)nc(NS(=O)(=O)c2ccc(NC(=S)NC(=O)c3ccco3)cc2)n1	inconclusive: 19.3%
Cc1ccc(-n2cccc2C(=S)N=P(N(C)C)(N(C)C)N(C)C)cc1	inactive: 2.26%
O=C(Cc1c(C(=O)O)[nH]c2ccccc12)NC1CCCC1	inconclusive: 22.9%
CC(C)Oc1ccc(C(=O)NC2=NCCS2)cc1	inconclusive: 15.4%
O=C(c1ccncc1)N1CCN(S(=O)(=O)c2ccccc2Br)CC1	inconclusive: 25.5%
Cc1ccc2c(c1)C1CC(C)(O2)N(c2cccc(C(=O)NCc3ccccn3)c2)C(=O)N1 (configuration not stated)	inconclusive: 15.8%
Cc1ccc(CNC(=O)COC(=O)c2ccc(S(=O)(=O)N3CCOCC3)cc2)cc1	inconclusive: 16.5%
Fc1ccc(NC(=S)Nc2cccc3ccccc23)cc1	inconclusive: 9.05%
CN1/C(=C\C(=O)c2cccnc2)Sc2ccccc21	inconclusive: 11.9%
COC(=O)c1c(C)[nH]c(C(=O)C(C)OC(=O)C2CC2)c1C (configuration not stated)	inactive: 8.63%
COc1cccc(N2CCN(C(=O)CCc3nnc4ccc(N5CCCC5)nn34)CC2)c1	inconclusive: 14.8%

Structure (SMILES)	inhibition
O=C1/C(=C/c2cccs2)SC(=S)N1CCC(=O)N1CCCCC1CCO (configuration not stated)	inactive: 2.07%
O=C1C(Cl)=C(N2CCOCC2)C(=O)N1c1ccccc1Cl	inactive: 0.764%
COc1nc(NS(=O)(=O)c2ccc(C)cc2)nc(C)c1Cl	inconclusive: 19.9%
CCCCCCC(=O)N(O)C1CC(=O)N(Cc2ccccc2)C1=O (configuration not stated)	active: 77.8%
COc1ccccc1CNCc1cc(OC)c(OC)cc1OC	inconclusive: 15.8%
Cc1ccc(/C=C2\SC(=S)N(NS(=O)(=O)c3ccc(C)cc3)C2=O)cc1	inactive: 5.78%
C/C(=N/NC(=O)c1ccccc1)C1=C(O)CC(C)(C)CC1=O	active: 70.8%
CC(=O)c1ccc(N2CCN(C(=O)CCCn3c(=S)[nH]c4cc5c(cc4c3=O)OCO5)CC2)cc1	inactive: 2.22%
NC(=O)COC(=O)c1cc(S(=O)(=O)N2CCOCC2)ccc1N1CCCCC1	inactive: -0.519%
Cn1c2ccccc2c(=O)c2c(=O)n(C3CCCCC3)c(-c3ccco3)nc21	inactive: 3.89%
Cc1cc(C)n(-c2cc(N3CCN(C(=O)c4ccc(C(C)(C)C)cc4)CC3)ccc2[N+](=O)[O-])n1	inconclusive: 26.9%
Cn1c(SCC(=O)N/N=C/c2ccc([N+](=O)[O-])s2)nnc1-c1ccc(Cl)cc1	inactive: 0.745%
O=C(NCCO)c1ccc2[nH]c3c(c2c1)CCCC3	inconclusive: 12.8%
CCc1c(C)sc(NC(=O)c2cc(-c3ccco3)on2)c1C#N	inactive: 3.67%
O=Cc1c(NC2CCCCC2)c2ccccc2[nH]c1=O	inconclusive: 16.7%
CC(C)CC(COCc1ccc(C(F)(F)F)cc1)N1CCN(C(=O)c2ccc(C(F)(F)F)cc2)CCC1=O (configuration not stated)	active: 39.2%
Cc1ccc(C)c(S(=O)(=O)N2CCCC2CNC(=O)C(=O)NCc2cccs2)c1 (configuration not stated)	inconclusive: 7.14%
COCCNC(=O)C1CCN(S(=O)(=O)c2ccc3c(c2)OCCO3)CC1	inconclusive: 10.6%
COc1ccc2[nH]c(O)c(NC(C)=O)c2c1	inconclusive: 15.6%
CC(=O)Nc1nc2ccccc2n1Cc1ccccc1C	inconclusive: 14%
CCOC1=NN(c2ncc(C(F)(F)F)cc2Cl)C(=O)C1	inconclusive: 21.4%
N#Cc1nc(COc2ccccc2F)oc1N1CCCCCC1	inconclusive: 14.4%

Structure (SMILES)	inhibition
Cc1ccc(C)c(NC(=O)CSc2nc(=O)n(CCN3CCOCC3)c3c2CCCC3)c1	inconclusive: 23.2%
CC(C)(C)NC(=O)c1ccccc1NC(=O)C1CCCO1 (configuration not stated)	inconclusive: 9.53%
O=C(CCc1c[nH]c2ccccc12)N/N=C/c1ccc2c(c1)OCO2	inconclusive: 13.3%
O=C(CN1CCN(Cc2ccccc2)CC1)N1CCCCCC1	inactive: -9.36%
Cc1ccc(-c2nc(SCC(=O)NCC3CCCO3)c(-c3ccc(Cl)cc3)[nH]2)cc1 (configuration not stated)	inconclusive: 16%
CC(C)=C1C2CCC1C1C(=O)N(NC(=O)COc3ccc(Cl)c(C)c3)C(=O)C21 (configuration not stated)	inconclusive: 18.2%
C=CCn1c(SCC(=O)N2CCCC2=O)nc2sc(CC)cc2c1=O	inactive: 11.4%
CC(C)=CCCC(C)NC(=O)NC1CCCCC1 (configuration not stated)	inconclusive: 21.9%
O=C(CSc1nc2ncc(Cl)cc2[nH]1)c1c[nH]c2ccccc12	inconclusive: 16.3%
O=C(CSc1c2c(nc3ccc(Cl)cc13)CCCC2)NCc1ccco1	inconclusive: 14%
COc1ccc(NC(=O)N2CCCC2C(=O)NCc2ccc(C)cc2)cc1 (configuration not stated)	inconclusive: 30.7%
CCCC(C(=O)NC1CCCC1)N(C(=O)Cn1nnc(-c2ccc(C)o2)n1)C1CCCC1 (configuration not stated)	inconclusive: 46.7%
Cc1ccc(-n2c3c(cc(C(=O)N4CCN(C)CC4)c2=O)C(=O)CC(C)(C)C3)cc1	inconclusive: 9.71%
CN(C)/C=C/c1onc(-c2c(F)cccc2Cl)c1C#N	inconclusive: 16%
CC(C)c1ccc(O)c(N)c1	inconclusive: 17.9%
CCCCC1=CC2=C(c3ccco3)C(=O)C(C)(OC(=O)c3ccc(OC)cc3)C(=O)C2=CN1Cc1ccc2c(c1)OCO2 (configuration not stated)	inconclusive: 17.6%
CCOC(=O)c1cc2c(ccn2C)n1CC(=O)N1CCC(Cc2ccccc2)CC1	inconclusive: 13.3%
NC(=O)CC(NC(=O)Cc1ccc(Br)cc1)c1ccc(NCCOc2ccccc2)c([N+](=O)[O-])c1 (configuration not stated)	inconclusive: 13.8%
COc1cc2c(cc1OC)CN(C(=O)CNS(=O)(=O)c1ccc(C)c(C)c1)CC2	inconclusive: 19.2%
Cc1onc(-c2ccccc2Cl)c1C(=O)N1CCN(c2ccc(F)cc2)CC1	inconclusive: 12.9%
CC(C)c1ccc(/C=C(\NC(=O)c2ccccc2)C(=O)NCCN2CCOCC2)cc1	inconclusive: 17.3%

Reference: PubChem BioAssay AID2718 (Broad Institute, 2010)
